Where a chain is given by its changes, count along the chain named. These are yes or no findings as the source states them, for the method shown. In cells and extracts the contact can be indirect. These calls come from enrichment with a bait or labelling near it, and not all partners need be listed. For some of these results: No binding means not detected with the bait. Tags and fused reporters may be left off the sequences shown.
Legend:
[1] = biological target: T1, Bombyx mori translationally controlled tumor protein, K164R mutant, FLAG-tagged (FLAG-TCTP-K164R) (Bombyx mori) (UniProt Q75VN3); experiment: affinity purification with mass spectrometry; whole-cell lysates (RIPA buffer) of BmN cell lines stably expressing FLAG-TCTP-WT or FLAG-TCTP-K164R; immunoprecipitation with anti-FLAG M2 affinity gel; eluate digested with trypsin and analysed by LC-MS/MS (MaxQuant, at least one unique peptide)
T1 sequence: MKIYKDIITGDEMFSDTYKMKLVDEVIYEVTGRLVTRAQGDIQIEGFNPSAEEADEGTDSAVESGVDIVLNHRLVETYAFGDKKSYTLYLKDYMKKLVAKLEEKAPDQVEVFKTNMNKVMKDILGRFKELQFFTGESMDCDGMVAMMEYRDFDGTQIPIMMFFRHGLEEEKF

[2] = biological target: T2, Bombyx mori translationally controlled tumor protein, wild type, FLAG-tagged (FLAG-TCTP-WT) (Bombyx mori) (UniProt Q75VN3); experiment: as above
T2 sequence: T1 sequence with R164K

binding [1]	binding [2]	Substance
no binding	binds	Bombyx mori interleukin enhancer binding factor (BmILF)
no binding	binds	SUMO-activating enzyme (Bombyx mori (endogenous in BmN))

Source: PMC8858932
